# Article PMC11112747, “Cyanovirin-N Binding to N-Acetyl-D-glucosamine Requires Carbohydrate-Binding Sites on Two Different Protomers” (Biochemistry, 2024)
# B1: CVN2: tandem-linked dimeric CVN2 with zero-linker length; tandem repeat of two CV-N molecules (protein, UniProt P81180 1-101, looked up)
# Cyanovirin-N: LGKFSQTCYNSAIQGSVLTSTCERTNGGYNTSSIDLNSVIENVDGSLKWQPSNFIETCRNTQLAGSSELAAECKTRAQQFVSTKINLDDHIANIDGTLKYE
# modifications: tandem repeat dimer, zero linker
# notes: tandem-linked dimeric CVN2 with zero-linker length; tandem repeat of two CV-N molecules
# Assay: ITC binding of CV-N, CVN2 and variants to ManNAc
# Conditions: one-set of sites model, T = 298 K
# Method: Calorimetric titrations were carried out using an ITC200 device (Malvern Panalytical, Malvern, UK). The concentration of mutant E41T dimer and monomeric variants CVN-E41T or CVN-E41A was 200 μM titrant of these proteins to the ligands ManNAc and GlcNAc in the cell. […] The protein concentrations were 44 μM (304 μM) CVN2L0 and 465 μM CVN-E41T in the ManNAc experiments, respectively, and determined to be between 200 and 300 μM for the GlcNAc experiment. Aliquots (2 μL) of CV-N titrant were injected at 2 min intervals into the sugar solution in the calorimetry cell with a total of 19 injections from a stirring syringe (operated at 750 rpm). Controls were prepared with identical amounts of titrant injected into PBS buffer at pH 7.4 at 298 K, and control values were subtracted from the results of the actual experiments. The values for enthalpy, binding affinity, and stoichiometry from the binding curve and the free energy and entropy of interaction were calculated using Microcal Origin v7.0 (OriginLab, Northampton, Massachusetts, USA) according to the standard expressions: ΔG = −RTln Ka, and ΔG = ΔH–TΔS.
molecule,measurement,setting,value
B1,stoichiometry,,1.96 ± 0.024
same,enthalpy ΔH,PBS pH 7.4,–68.3 ± 20.3 kcal/mol
same,entropy TΔS,PBS pH 7.4,–61.2 ± 21.08 kcal/mol
